The whole screen tested about 400,000 compounds, of which about 13,000 (3.2%) were called active. The inconclusive results got no clear call from the source; some entries with a clear call stand among them for comparison. Calls come from the whole dose curve; as a rule, active = well fitted cell-killing curve with a large enough effect; inconclusive = small, poorly fitted or top-dose-only effect, or effect the other way; inactive = flat fitted curve, though single readings scatter. A potency beside an inconclusive call is a rough fit, not a confirmed value.
Assay: qHTS assay for MDR1-selective chemotherapeutics: Primary screen using the drug-selected MDR subline cells KB-V1; note: nearly all actives have a fitted effect of over 60% in size
Conditions: KB-V1 MDR cells viability, CellTiter-Glo, 72 h; activity change, negative = cytotoxicity: at 46.1 µM (top of the series)
How it was run: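 Readout: CellTiter-Glo luminescence, 10 min after addition. Cells: KB-V1 MDR subline, 72 h at 37 degrees C with compound. Analysis: corrected, normalized data fitted to concentration-effect curves.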
With CCOc1ccc(C(=O)Nc2nc3ccccc3[nH]2)cc1OCC the Potency was active: 5.17 µM. For O=C(CN1CCN(c2ccccc2O)CC1)NC(c1ccccc1)c1ccccc1, the Potency was active: 4.11 µM. For c1ccc(-c2cn(-c3ccccc3)c3[n+]2CCS3)cc1, the Potency was inconclusive: 29.1 µM [rising, single point]. With CC(C)(C)NC(=O)C(c1cc2ccccc2o1)n1c(-c2ccc(-c3ccccc3)cc2)nc2ccccc21 (configuration not stated) the Potency was inconclusive: 18.4 µM [cytotoxic, partial curve]. For CCc1ccc(-c2nn(CC(=O)NCc3ccccc3)c3c2cnc2ccc(F)cc23)cc1, the “activity change, negative = cytotoxicity” value was inactive: -7.11%. In the case of O=C(C#Cc1ccccc1)c1ccc([N+](=O)[O-])cc1, the Potency is reported as inconclusive: 14.6 µM [cytotoxic, single point]. For CCN1CCN(C(=O)/C=C/c2ccc(C)o2)CC1, the Potency was inconclusive: 9.2 µM [cytotoxic, partial curve]. For Cc1cc(C)c(S(=O)(=O)Nc2ccc(-c3ccc(N4CCCCCC4)nn3)cc2)c(C)c1, the Potency was inconclusive: 10.3 µM [cytotoxic, partial curve, poor fit]. For CCOc1cc(N2CCOCC2)c(OCC)cc1NC(=O)COC(=O)c1ccc(Cl)nc1, the “activity change, negative = cytotoxicity” value was inactive: 6.77%. In the case of CCCc1cc(C(=O)Nc2c(C)nn(Cc3c(Cl)cccc3Cl)c2C)no1, the Potency is reported as inconclusive: 23.1 µM [cytotoxic, single point]. With C/C(CC(=O)C(F)(F)F)=N\NC(=O)/C(C#N)=C/N(C)C the Potency was inconclusive: 16.4 µM [rising, single point]. For CC(=O)Nc1cccc(NC(=O)C(=O)NCC(c2ccco2)N2CCc3ccccc3C2)c1 (configuration not stated), the Potency was inconclusive: 8.2 µM [cytotoxic, partial curve]. With NC(=O)c1c(NC(NC(=O)c2ccco2)C(=O)c2ccc(Cl)cc2)sc2c1CCCC2 (configuration not stated) the Potency was inconclusive: 13 µM [cytotoxic, partial curve, poor fit]. In the case of Cc1ccc(S(=O)(=O)N2CCOCC2)cc1C(=O)Nc1nc(-c2ccccn2)cs1, the Potency is reported as inconclusive: 2.31 µM [cytotoxic, partial curve, poor fit]. In the case of CN(CC(=O)NCc1ccccc1)S(=O)(=O)c1ccc2[nH]c3c(c2c1)CCCC3, the activity change, negative = cytotoxicity is reported as inconclusive: 19.3%. For Cc1cccc(C(=O)NC(=S)NNC(=O)c2ccccc2Cl)c1, the Potency was inconclusive: 14.6 µM [cytotoxic, partial curve, poor fit]. With COc1cc(O)c(C(CC(=O)N2CCC(Cc3ccccc3)CC2)c2ccc(OC)c(OC)c2)c(OC)c1 (configuration not stated) the Potency was inconclusive: 56.2 µM [cytotoxic, partial curve, poor fit].
% is set by controls: 0 for no effect and ±100 for the full control effect; potency is the fitted concentration of half-maximal effect.
